Measured data: PubChem BioAssay AID1224830 (NIAID, 2016)
Here is an unselected part of about 18,000 reagents tested. In the full data, about 2,900 (16%) were called active. 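Calls are made per well; low scores hint the gene aids the LPS response, high scores that it dampens it.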 Repeated entries: four replicate wells of each siRNA pool.

Assay: 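Host factors that control LPS-induced TNF expression in human macrophages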 (primary screen)
Cell system: human THP-1 monocytic leukaemia cells, TNF dual-luciferase reporter clone, PMA-differentiated to macrophage-like cells
Reagent: siRNA pool against human genes, 50 nM
Timing: LPS for 4 h, given about 3 days after siRNA transfection
Challenge: bacterial LPS (TLR4 ligand), 10 ng/ml
Read-out: 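Ratio of firefly to renilla light, scaled to the plate median and expressed as a robust z-score per replicate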
Scale: TNF reporter robust z-score: higher = stronger TNF reporter response to LPS
Rule for the call: 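a well is active when its z-score exceeds 2.8 or falls below -1.5; control wells carry no call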

no.	gene symbol	TNF reporter robust z-score	Outcome
1	PREX2	0.99	inactive
2	PREX2	-0.48	inactive
3	PREX2	0.28	inactive
4	PREX2	0.15	inactive
5	SRSF6	0.39	inactive
6	SRSF6	-0.1	inactive
7	SRSF6	0.1	inactive
8	SRSF6	0.68	inactive
9	ATP5IF1	-0.35	inactive
10	ATP5IF1	0.49	inactive
11	ATP5IF1	-0.27	inactive
12	ATP5IF1	-0.07	inactive
13	AKR1C8	-0.89	inactive
14	AKR1C8	0.27	inactive
15	AKR1C8	-0.28	inactive
16	AKR1C8	0.38	inactive
17	FSD1L	-0.66	inactive
18	FSD1L	-0.7	inactive
19	FSD1L	-0.94	inactive
20	FSD1L	-0.43	inactive
21	DHRS1	0.34	inactive
22	DHRS1	0.96	inactive
23	DHRS1	0.68	inactive
24	DHRS1	4	active
25	CMBL	1.03	inactive
26	CMBL	1.18	inactive
27	CMBL	1.86	inactive
28	CMBL	-0.18	inactive
29	MIS18A	-0.87	inactive
30	MIS18A	0.58	inactive
31	MIS18A	0.03	inactive
32	MIS18A	0.94	inactive
33	GULP1	1.06	inactive
34	GULP1	1.32	inactive
35	GULP1	0.44	inactive
36	GULP1	0.86	inactive
37	DAOA	-0.88	inactive
38	DAOA	-0.41	inactive
39	DAOA	-1.22	inactive
40	DAOA	-0.75	inactive
41	RAP1GAP	0.66	inactive
42	RAP1GAP	0.4	inactive
43	RAP1GAP	2.1	inactive
44	RAP1GAP	0.97	inactive
45	NSG1	0.33	inactive
46	NSG1	0.35	inactive
47	NSG1	0.6	inactive
48	INCENP	2.62	inactive
49	INCENP	-0.15	inactive
50	INCENP	-0.91	inactive
51	INCENP	-0.04	inactive
52	SLC35D4	3.83	active
53	SLC35D4	2.09	inactive
54	SLC35D4	4.49	active
55	SLC35D4	2.48	inactive
56	NABP1	0	inactive
57	NABP1	-0.59	inactive
58	NABP1	-0.52	inactive
59	NABP1	-0.55	inactive
60	MAGEA9	-1.18	inactive
61	MAGEA9	0.88	inactive
62	MAGEA9	0.42	inactive
63	MAGEA9	0.16	inactive
64	KYNU	0.58	inactive
65	KYNU	-0.8	inactive
66	KYNU	0.17	inactive
67	KYNU	1.03	inactive

Ordered by “TNF reporter robust z-score” (descending): 22 of the entries above
gene symbol	TNF reporter robust z-score	Outcome
SLC35D4	4.49	active
SLC35D4	3.83	active
INCENP	2.62	inactive
SLC35D4	2.48	inactive
RAP1GAP	2.1	inactive
SLC35D4	2.09	inactive
RAP1GAP	0.97	inactive
GULP1	0.86	inactive
RAP1GAP	0.66	inactive
NSG1	0.6	inactive
GULP1	0.44	inactive
RAP1GAP	0.4	inactive
NSG1	0.35	inactive
NSG1	0.33	inactive
NABP1	0	inactive
INCENP	-0.04	inactive
INCENP	-0.15	inactive
DAOA	-0.41	inactive
DAOA	-0.75	inactive
DAOA	-0.88	inactive
INCENP	-0.91	inactive
DAOA	-1.22	inactive

The list goes on:
no.	gene symbol	TNF reporter robust z-score	Outcome
68	SERPINF2	-0.22	inactive
69	SERPINF2	-0.02	inactive
70	SERPINF2	0.36	inactive
71	SERPINF2	0.11	inactive
72	BPHL	-0.39	inactive
73	BPHL	0.17	inactive
74	BPHL	-0.7	inactive
75	BPHL	0.56	inactive
76	MLXIPL	-1.03	inactive
77	MLXIPL	-1.11	inactive
78	MLXIPL	-1.02	inactive
79	MLXIPL	0.02	inactive
80	TJP1	-0.49	inactive
81	TJP1	-0.11	inactive
82	TJP1	-0.68	inactive
83	TJP1	-0.86	inactive
84	FSTL5	-0.94	inactive
85	FSTL5	-0.86	inactive
86	FSTL5	-0.08	inactive
87	FSTL5	-0.1	inactive
88	CCDC24	2.31	inactive
89	CCDC24	0.32	inactive
90	CCDC24	0.59	inactive
91	CCDC24	-0.73	inactive
92	RING1	3.4	active
93	RING1	1.26	inactive
94	RING1	0.68	inactive
95	RING1	2.1	inactive
96	QRICH2	0.53	inactive
97	QRICH2	1.79	inactive
98	QRICH2	0.14	inactive
99	QRICH2	-0.44	inactive
100	ICE2	-0.94	inactive
101	ICE2	0.04	inactive
102	ICE2	-0.35	inactive
103	ICE2	0.81	inactive
104	CCL23	-0.04	inactive
105	CCL23	1.21	inactive
106	CCL23	0.11	inactive
107	CCL23	0.26	inactive
108	KRTAP13-3	-1.36	inactive
109	KRTAP13-3	-1.02	inactive
110	KRTAP13-3	-1.26	inactive
111	KRTAP13-3	0.87	inactive
112	PITRM1	-0.17	inactive
113	PITRM1	0.33	inactive
114	PITRM1	2.15	inactive
115	PITRM1	0.07	inactive
116	PLA2G4E	0.06	inactive
117	PLA2G4E	-0.2	inactive
118	PLA2G4E	-0.48	inactive
119	MGMT	-0.96	inactive
120	MGMT	0.45	inactive
121	MGMT	-1.06	inactive
122	MGMT	-0.01	inactive
123	F9	0.37	inactive
124	F9	1.16	inactive
125	F9	0.72	inactive
126	F9	1.78	inactive
127	OR4N4	-0.5	inactive
128	OR4N4	0.76	inactive
129	OR4N4	1	inactive
130	OR4N4	0.53	inactive
131	LCN2	1.92	inactive
132	LCN2	1.26	inactive
133	LCN2	1.22	inactive
134	LCN2	1.53	inactive
135	PPP4R3B	-0.47	inactive
136	PPP4R3B	-1	inactive
137	PPP4R3B	-0.21	inactive
138	PPP4R3B	0.06	inactive
139	SEMA4A	0.49	inactive
140	SEMA4A	0.69	inactive
141	SEMA4A	1.42	inactive
142	SEMA4A	0.28	inactive
